One compound from US10881645B2, “Methods for controlling blood pressure and reducing dyspnea in heart failure” (Chiesi Farmaceutici S.p.A., priority 2012, dated 2021) can be followed below.

No dose or concentration is given here for some results.

The test system of this data set is AHF patients with SBP of ≥160 mmHg. The experiment in a line: Procedures, hospital/ICU admissions, length of stay and readmissions in the AHF trial. Conditions: in vivo. More on the design: species or system human.

For the compound `CCCC(=O)OCOC(=O)C1=C(C)NC(C)=C(C(=O)OC)C1c1cccc(Cl)c1Cl` (centres unmarked) [clevidipine], the Median hospital stay is on record as 4.0 days and the “Out-of-hospital period before re-hospitalization” value is listed as 11.0 days.
